Reference: article PMC3792889

The chains behind the UniProt entries cited, without tags or fusion partners. Where a name states a change or a piece, a line headed by the entry shows the natural chain unless it says otherwise.
UniProt P42859: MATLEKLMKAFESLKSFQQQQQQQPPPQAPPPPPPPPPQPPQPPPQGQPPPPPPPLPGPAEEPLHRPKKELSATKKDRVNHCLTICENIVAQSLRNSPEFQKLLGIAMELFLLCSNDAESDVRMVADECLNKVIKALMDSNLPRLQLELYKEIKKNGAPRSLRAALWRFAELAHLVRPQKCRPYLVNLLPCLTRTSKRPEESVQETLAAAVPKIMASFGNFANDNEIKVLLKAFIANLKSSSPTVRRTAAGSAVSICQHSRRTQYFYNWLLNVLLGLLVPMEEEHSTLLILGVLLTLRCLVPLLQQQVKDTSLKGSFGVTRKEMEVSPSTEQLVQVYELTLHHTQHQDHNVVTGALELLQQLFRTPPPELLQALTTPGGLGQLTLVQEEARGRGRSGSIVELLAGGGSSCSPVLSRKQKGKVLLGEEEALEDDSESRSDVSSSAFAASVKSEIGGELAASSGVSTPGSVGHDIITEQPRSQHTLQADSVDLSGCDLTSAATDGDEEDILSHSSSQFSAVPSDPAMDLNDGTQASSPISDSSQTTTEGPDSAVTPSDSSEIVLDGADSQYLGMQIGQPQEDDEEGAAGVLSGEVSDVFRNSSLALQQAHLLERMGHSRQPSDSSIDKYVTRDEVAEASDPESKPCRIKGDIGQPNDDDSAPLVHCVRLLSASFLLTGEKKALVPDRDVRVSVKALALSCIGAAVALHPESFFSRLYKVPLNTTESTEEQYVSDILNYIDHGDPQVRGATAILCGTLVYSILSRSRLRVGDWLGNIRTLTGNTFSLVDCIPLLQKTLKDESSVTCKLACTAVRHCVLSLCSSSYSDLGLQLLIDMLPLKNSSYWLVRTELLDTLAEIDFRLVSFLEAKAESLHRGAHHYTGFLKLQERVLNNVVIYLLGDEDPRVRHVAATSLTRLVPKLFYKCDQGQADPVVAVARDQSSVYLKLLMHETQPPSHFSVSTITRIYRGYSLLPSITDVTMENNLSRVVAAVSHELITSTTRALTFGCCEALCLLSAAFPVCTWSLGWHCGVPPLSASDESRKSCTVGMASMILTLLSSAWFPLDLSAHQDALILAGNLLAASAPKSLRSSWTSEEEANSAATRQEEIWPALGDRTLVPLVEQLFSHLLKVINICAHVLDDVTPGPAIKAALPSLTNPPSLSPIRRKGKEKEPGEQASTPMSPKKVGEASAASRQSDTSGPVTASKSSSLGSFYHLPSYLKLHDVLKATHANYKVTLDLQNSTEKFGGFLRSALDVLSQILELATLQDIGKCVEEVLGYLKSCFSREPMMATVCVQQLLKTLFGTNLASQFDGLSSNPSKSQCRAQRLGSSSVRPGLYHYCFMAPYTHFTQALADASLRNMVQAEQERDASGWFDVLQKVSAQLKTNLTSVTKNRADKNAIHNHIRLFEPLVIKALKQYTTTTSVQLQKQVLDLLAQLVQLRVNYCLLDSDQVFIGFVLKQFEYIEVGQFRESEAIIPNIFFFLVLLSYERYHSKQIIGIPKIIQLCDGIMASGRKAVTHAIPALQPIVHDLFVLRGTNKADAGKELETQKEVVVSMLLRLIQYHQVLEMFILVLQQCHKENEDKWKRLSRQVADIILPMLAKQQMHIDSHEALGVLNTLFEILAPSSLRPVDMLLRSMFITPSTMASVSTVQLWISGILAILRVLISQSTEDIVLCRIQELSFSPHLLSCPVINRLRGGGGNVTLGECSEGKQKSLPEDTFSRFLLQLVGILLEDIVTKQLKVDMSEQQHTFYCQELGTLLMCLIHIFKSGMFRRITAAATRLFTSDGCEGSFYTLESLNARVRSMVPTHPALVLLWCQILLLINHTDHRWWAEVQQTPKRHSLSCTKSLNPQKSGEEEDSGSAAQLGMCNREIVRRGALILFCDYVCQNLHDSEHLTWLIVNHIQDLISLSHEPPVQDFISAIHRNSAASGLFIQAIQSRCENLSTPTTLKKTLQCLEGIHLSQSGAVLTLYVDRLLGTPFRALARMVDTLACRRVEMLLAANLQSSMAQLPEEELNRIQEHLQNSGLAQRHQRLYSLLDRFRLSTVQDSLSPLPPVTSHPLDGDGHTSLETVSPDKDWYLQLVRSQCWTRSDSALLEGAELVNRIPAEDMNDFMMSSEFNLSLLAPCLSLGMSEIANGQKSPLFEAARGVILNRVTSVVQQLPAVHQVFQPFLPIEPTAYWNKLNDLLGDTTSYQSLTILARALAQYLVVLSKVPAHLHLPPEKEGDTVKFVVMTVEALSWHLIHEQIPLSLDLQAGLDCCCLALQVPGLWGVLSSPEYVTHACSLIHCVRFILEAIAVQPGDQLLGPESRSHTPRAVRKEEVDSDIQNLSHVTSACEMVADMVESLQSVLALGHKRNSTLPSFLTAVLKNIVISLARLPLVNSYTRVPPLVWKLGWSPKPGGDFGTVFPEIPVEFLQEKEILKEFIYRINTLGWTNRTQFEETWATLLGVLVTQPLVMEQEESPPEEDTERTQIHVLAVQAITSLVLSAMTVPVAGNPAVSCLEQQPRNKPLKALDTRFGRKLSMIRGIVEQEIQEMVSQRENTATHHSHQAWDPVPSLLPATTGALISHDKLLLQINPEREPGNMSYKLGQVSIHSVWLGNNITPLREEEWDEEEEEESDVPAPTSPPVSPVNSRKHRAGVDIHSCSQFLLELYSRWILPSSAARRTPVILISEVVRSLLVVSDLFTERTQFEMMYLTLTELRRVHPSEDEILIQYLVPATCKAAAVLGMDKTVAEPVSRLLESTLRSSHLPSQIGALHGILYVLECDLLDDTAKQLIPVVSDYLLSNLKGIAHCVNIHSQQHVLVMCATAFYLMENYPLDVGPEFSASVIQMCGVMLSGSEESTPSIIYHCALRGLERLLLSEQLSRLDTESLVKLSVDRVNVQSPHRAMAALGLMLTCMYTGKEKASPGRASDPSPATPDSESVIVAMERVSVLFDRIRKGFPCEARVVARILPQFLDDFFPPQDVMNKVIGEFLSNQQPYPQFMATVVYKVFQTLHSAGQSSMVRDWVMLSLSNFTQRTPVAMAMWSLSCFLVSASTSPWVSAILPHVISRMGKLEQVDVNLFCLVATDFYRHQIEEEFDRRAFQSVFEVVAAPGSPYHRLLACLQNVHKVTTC
UniProt Q60631: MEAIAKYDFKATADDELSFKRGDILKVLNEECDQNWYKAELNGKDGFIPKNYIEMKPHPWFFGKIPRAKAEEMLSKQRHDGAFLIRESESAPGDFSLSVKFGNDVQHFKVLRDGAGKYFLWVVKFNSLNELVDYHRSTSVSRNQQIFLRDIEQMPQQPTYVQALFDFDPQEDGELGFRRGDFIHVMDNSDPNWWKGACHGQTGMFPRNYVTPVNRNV

Experiments:
[1] = target: full length mutated HTT with 111Q (endogenous, STHdhQ111/111 cells) (mouse (endogenous knock-in in STHdhQ111/111)) (UniProt P42859); test: co-IP; reverse: whole cell extracts of STHdhQ7/7 and STHdhQ111/111 cells; 200 ug extract incubated overnight with anti-Htt antibody and Protein A/G beads; blot with anti-Grb2 (12% SDS-PAGE)
[2] = target: Growth factor receptor protein binding protein 2 (Grb2), endogenous (mouse (endogenous in STHdhQ7/7, STHdhQ111/111 and Neuro2A cells)) (UniProt Q60631); test: co-IP; whole cell extracts of STHdhQ7/7 and STHdhQ111/111 cells; 200 ug extract incubated overnight with anti-Grb2 antibody and Protein A/G beads; blot with anti-Htt (6% SDS-PAGE)

Row | Substance | binding [1] | binding [2]
1 | Growth factor receptor protein binding protein 2 (Grb2), endogenous (from UniProt Q60631 1-217) | binds | –
2 | full length mutated HTT with 111Q (endogenous, STHdhQ111/111 cells) (from UniProt P42859) | – | binds

These are yes or no findings as the source states them, for the method shown. Binding seen in cells or lysates may run through a third protein. A result given as binding can be weak or reduced; the word gives no strength.
